Results as given in patent publication US20200148635A1 (priority 2017, published 2020).
Some entries share one result that the patent states for a list of compounds. At least one compound was matched to its structure with a doubt left.

Key:
Phakopsora pachyrhizi = assay: Greenhouse Phakopsora pachyrhizi test in soybean, preventive; format: in vivo; settings: 500 ppm; preventive spray on soybean plants, inoculated one day after treatment with Phakopsora pachyrhizi
Procedure: Phakopsora pachyrhizi Test in Soybean
Compounds were dissolved in 2% DMSO/Acetone and then mixed with water to the calibrated spray volume of 50 mL and poured into the spray bottles for further applications.
To test the preventive activity of compounds, healthy young soybean plants raised in the greenhouse were sprayed with active compound preparation at the stated application rates inside the spray cabinets using hallowcone nozzles. One day after treatment, the plants were inoculated with spore suspension containing 2.1×10^6 Phakopsora pachyrhizi inoculum. The inoculated plants were then kept in greenhouse chamber at 25° C. temperature and 90% relative humidity for disease expression.
A visual assessment of compound's performance was carried out by rating the disease severity (0-100% scale) on treated plants on 3, 7, 10 and 15 days after application. Efficacy (% control) of the compounds was calculated by comparing the disease rating in the treatment with the one of the untreated control. The sprayed plants were also assessed for compound's plant compatibility by recording symptoms like necrosis, chlorosis and stunting.

Pyricularia oryzae = format: cell-based; settings: 300 ppm, agar plate, 25° C., seven days, radial growth
Alternaria solani = assay: In vitro test Alternaria solani (early blight of tomato/potato), radial growth on Potato Dextrose Agar; format: cell-based; settings: 300 ppm, agar plate, 25° C., seven days
Procedure: Alternaria solani (early blight of tomato/potato): Compounds were dissolved in 0.3% DMSO and then added to Potato Dextrose Agar medium just prior to dispensing it into Petri dishes. 5 mL medium with compound in the desired concentration was dispensed into 60 mm sterile Petri-plates. After solidification each plate was seeded with 5 mm size mycelial disc taken form periphery of actively growing virulent culture plate. Plates were incubated in growth chambers at 25° C. temperature and 60% relative humidity for seven days and radial growth was measured.

SMILES	control compared to the untreated check (Phakopsora pachyrhizi) [%]	control compared to the untreated check (Pyricularia oryzae)	control compared to the untreated check (Alternaria solani)
CCN(C)C=Nc1cc(C)c(S(=NC#N)c2ccccc2)cc1Cl (centres unmarked) [Compound 2]	> 70	more than 70%	
CCN(C)C=Nc1cc(C)c(Oc2cccc(S(C)(=O)=NC)c2)cc1Cl (centres unmarked) [Compound 7]		more than 70%	
CCN=S(=O)(c1cccc(Oc2cc(Cl)c(N=CN(C)CC)cc2C)c1)C(F)(F)F (centres unmarked) [Compound 13]		more than 70%	
CCN(C)C=Nc1cc(C)c(Oc2cccc(S(C)(=O)=Nc3ccccn3)c2)cc1Cl (centres unmarked) [Compound 19]		more than 70%	
CCN(C)C=Nc1cc(C)c(Oc2cccc(S(=O)(CCC(C)C)=NCC3CC3)c2)cc1Cl (centres unmarked) [Compound 26]		more than 70%	
CCN(C)C=Nc1cc(C)c(S(C)(=O)=Nc2cc(C(F)(F)F)cc(C(F)(F)F)c2)cc1Cl (centres unmarked) [Compound 27]		more than 70%	
CCN(C)C=Nc1cc(C)c(S(C)(=O)=NC(=O)c2cc(Cl)cc(Cl)c2)cc1Cl (centres unmarked) [Compound 33]	> 70	more than 70%	
CCN(C)C=Nc1cc(C)c(S(C)(=O)=NC(=O)c2cccc(OC)c2)cc1Cl (centres unmarked) [Compound 35]		more than 70%	
CCN(C)C=Nc1cc(C)c(S(C)(=O)=NC(=O)c2cccc(F)c2)cc1Cl (centres unmarked) [Compound 39]	> 70	more than 70%	
CCN=S(C)(=O)c1cccc(Oc2nc(C)c(N=CN(C)CC)cc2Br)c1 (centres unmarked) [Compound 42]		more than 70%	
CCN(C)C=Nc1cc(Br)c(Oc2cccc(S(C)(=O)=NC(=O)C(F)(F)F)c2)nc1C (centres unmarked) [Compound 46]	> 70	more than 70%	
CCN(C)C=Nc1cc(Br)c(Oc2cccc(S(C)(=O)=NCC(F)(F)F)c2)nc1C (centres unmarked) [Compound 49]	> 70	more than 70%	
CCN(C)C=Nc1cc(C)c(Oc2cccc(S(C)(=O)=NC(=O)C3CCC3)c2)cc1C (centres unmarked) [Compound 67]			more than 70%
CCN(C)C=Nc1cc(Br)c(Oc2cccc(S(C)(=O)=NCC(C)(C)C)c2)nc1C (centres unmarked) [Compound 70]			more than 70%
CCN(C)C=Nc1cc(Br)c(Oc2cccc(S(C)(=O)=NC(=O)C3CC3)c2)nc1C (centres unmarked) [Compound 73]		more than 70%	
CCN(C)C=Nc1cc(Br)c(N=S(=O)(c2ccc(Cl)cc2)C(C)C)nc1C (centres unmarked) [Compound 79]	> 70		
CCCS(=O)(=Nc1nc(C)c(N=CN(C)CC)cc1Br)c1ccc(Cl)cc1 (centres unmarked) [Compound 80]		more than 70%	
CCN(C)C=Nc1cc(Br)c(N=S(C)(=O)c2ccc(Cl)cc2)nc1C (centres unmarked) [Compound 81]		more than 70%	
CCN(C)C=Nc1cc(Br)c(N=S(=O)(CCC(C)C)c2ccc(Cl)cc2)nc1C (centres unmarked) [Compound 82]		more than 70%	
CCN(C)C=Nc1cc(C)c(S(=O)(CC(C)C)=Nc2ccc(F)c(Cl)c2)cc1Cl (centres unmarked) [Compound 83]		more than 70%	
CCN(C)C=Nc1cc(C)c(Oc2cccc(S(C)(=O)=NC(F)(F)F)c2)cc1C (centres unmarked) [Compound 94]			more than 70%
CCN(C)C=Nc1cc(C)c(Oc2cccc(S(C)(=O)=Nc3ccccn3)c2)cc1C (centres unmarked) [Compound 97]		more than 70%	
CCN(C)C=Nc1cc(C)c(Oc2cccc(S(C)(=O)=NC)c2)cc1C (centres unmarked) [Compound 99]		more than 70%	

SMILES	control compared to the untreated check (Phakopsora pachyrhizi) [%]	control compared to the untreated check (Pyricularia oryzae)	control compared to the untreated check (Alternaria solani)
CCN(C)C=Nc1cc(Br)c(Oc2cccc(S(C)(=O)=NCCC(C)C)c2)nc1C (centres unmarked) [Compound 104]	> 70		
CCN(C)C=Nc1cc(Br)c(Oc2cccc(S(C)(=O)=NCCC3CCOCC3)c2)nc1C (centres unmarked) [Compound 105]	> 70		more than 70%
CCN(C)C=Nc1cc(Br)c(Oc2cccc(S(C)(=O)=NC(=O)CC(C)C)c2)nc1C (centres unmarked) [Compound 108]		more than 70%	
CCN(C)C=Nc1cc(Br)c(Oc2cccc(S(C)(=O)=NC(=O)CC3CCOCC3)c2)nc1C (centres unmarked) [Compound 109]		more than 70%	
CCN(C)C=Nc1cc(C)c(S(=O)(CC(C)C)=Nc2cccc(N(C)C)c2)cc1Cl (centres unmarked) [Compound 112]	> 70	more than 70%	
CCN(C)C=Nc1cc(C)c(S(=O)(CC(C)C)=Nc2cc(OC)c(OC)c(OC)c2)cc1Cl (centres unmarked) [Compound 115]			more than 70%
CCN(C)C=Nc1cc(C)c(Oc2cccc(S(=O)(CC)=NC#N)c2)cc1C (centres unmarked) [Compound 116]	> 70		
CCN(C)C=Nc1cc(C)c(Oc2cccc(S(C)(=O)=NC#N)c2)cc1C (centres unmarked) [Compound 117]		more than 70%	
CCN(C)C=Nc1cc(Br)c(Oc2cccc(S(=O)(CC)=NC(=O)C3CC3)c2)nc1C (centres unmarked) [Compound 119]			more than 70%
CCN(C)C=Nc1cc(Br)c(Oc2cccc(S(=O)(CC)=NC(=O)C(C)(C)C)c2)nc1C (centres unmarked) [Compound 120]		more than 70%	
CCN(C)C=Nc1cc(Br)c(Oc2cccc(S(=O)(CC)=NCC(C)(C)C)c2)nc1C (centres unmarked) [Compound 121]		more than 70%	
CCN(C)C=Nc1cc(C)c(Oc2ccccc2S(=O)(=NC)C(F)(F)F)cc1Cl (centres unmarked) [Compound 149]		more than 70%	
CCN(C)C=Nc1ccc2c(c1)C(=O)N=S2(=O)Cc1ccccc1 (centres unmarked) [Compound 153]	> 70	more than 70%	
CCN(C)C=Nc1ccc2c(c1)C(=O)N=S2(=O)Cc1ccc(Cl)cc1 (centres unmarked) [Compound 154]		more than 70%	
CCN(C)C=Nc1ccc2c(c1)C(=O)N=S2(=O)Cc1ccc(C)cc1 (centres unmarked) [Compound 155]		more than 70%	
CCN(C)C=Nc1cc2c(cc1Cl)S(=O)(Cc1ccccc1)=NC2=O (centres unmarked) [Compound 156]		more than 70%	more than 70%
CCN(C)C=Nc1ccc2c(c1)CN=S2(=O)Cc1ccccc1 (centres unmarked) [Compound 158]	> 70	more than 70%	
CCN(C)C=Nc1ccc2c(c1)C(=O)N=S2(=O)Cc1ccc(F)cc1 (centres unmarked) [Compound 159]		more than 70%	
CCN(C)C=Nc1ccc2c(c1)C(=O)N=S2(=O)Cc1ccc(Br)cc1 (centres unmarked) [Compound 160]	> 70	more than 70%	
CCN(C)C=Nc1ccc2c(c1Cl)C(=O)N=S2(=O)Cc1ccc(Cl)cc1 (centres unmarked) [Compound 161]	> 70	more than 70%	
CCN(C)C=Nc1cc2c(cc1Cl)S(=O)(Cc1ccc(Cl)cc1)=NC2=O (centres unmarked) [Compound 162]		more than 70%	
CCN(C)C=Nc1cc2c(cc1Cl)S(=O)(Cc1ccc(F)cc1)=NC2=O (centres unmarked) [Compound 164]		more than 70%	
CCN(C)C=Nc1ccc2c(c1)C(=O)N=S2(=O)Cc1ccc(OC(F)(F)F)cc1 (centres unmarked) [Compound 165]		more than 70%	more than 70%
